PubChem BioAssay AID1224830, NIAID | 2016
Shown is an unselected part of about 18,000 deposited reagents. About 2,900 of them (16%) count as active. 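Calls are made per well; low scores hint the gene aids the LPS response, high scores that it dampens it.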 Unmarked entries are inactive. Repeated entries: four replicate wells of each siRNA pool. No sequences are given here.

Test: 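Host factors that control LPS-induced TNF expression in human macrophages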 (primary screen)
Cell system: human THP-1 monocytic leukaemia cells, TNF dual-luciferase reporter clone, PMA-differentiated to macrophage-like cells
Knock-down reagent: siRNA pool against human genes, 50 nM
Duration: LPS for 4 h, given about 3 days after siRNA transfection
Treatment: bacterial LPS (TLR4 ligand), 10 ng/ml
Read-out: 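Ratio of firefly to renilla light, scaled to the plate median and expressed as a robust z-score per replicate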
Scale: TNF reporter robust z-score: higher = stronger TNF reporter response to LPS
Active means: 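a well is active when its z-score exceeds 2.8 or falls below -1.5; control wells carry no call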

Depletion of ZCCHC8 (GeneID 55596) came out at: TNF reporter robust z-score 0.45.
Depletion of ZCCHC8 (GeneID 55596) resulted in: TNF reporter robust z-score 0.71.
For ZCCHC8 (GeneID 55596) the deposit lists TNF reporter robust z-score 0.84.
Depletion of ZCCHC8 (GeneID 55596) resulted in: TNF reporter robust z-score 0.76.
With knock-down of LILRB5 (GeneID 10990), the screen gave TNF reporter robust z-score -1.01.
LILRB5 (GeneID 10990) scored TNF reporter robust z-score -0.11.
With knock-down of LILRB5 (GeneID 10990) the results were TNF reporter robust z-score -0.25.
After knock-down of LILRB5 (GeneID 10990), the record shows TNF reporter robust z-score 0.3.
After knock-down of PHF20L1 (GeneID 51105), the screen gave TNF reporter robust z-score -0.16.
Against PHF20L1 (GeneID 51105), the entry reads TNF reporter robust z-score -1.6 (active).
Against PHF20L1 (GeneID 51105) the deposit lists TNF reporter robust z-score 0.9.
PHF20L1 (GeneID 51105) showed TNF reporter robust z-score -0.64.
CHRND (GeneID 1144) scored TNF reporter robust z-score -1.05.
Knock-down of CHRND (GeneID 1144) came out at: TNF reporter robust z-score -1.33.
CHRND (GeneID 1144) showed TNF reporter robust z-score -1.48.
With knock-down of CHRND (GeneID 1144) the results were TNF reporter robust z-score -0.81.
For GLCCI1 (GeneID 113263) the deposit lists TNF reporter robust z-score 0.3.
Knock-down of GLCCI1 (GeneID 113263) gave: TNF reporter robust z-score -0.22.
Silencing of GLCCI1 (GeneID 113263) gave: TNF reporter robust z-score 0.29.
GLCCI1 (GeneID 113263) scored TNF reporter robust z-score -0.03.
KIF14 (GeneID 9928) gave TNF reporter robust z-score 1.55.
With knock-down of KIF14 (GeneID 9928), the screen gave TNF reporter robust z-score 2.36.
After knock-down of KIF14 (GeneID 9928), the screen gave TNF reporter robust z-score 2.61.
After knock-down of KIF14 (GeneID 9928), the record shows TNF reporter robust z-score 2.2.
Against B9D2 (GeneID 80776) the deposit lists TNF reporter robust z-score 0.82.
Knock-down of B9D2 (GeneID 80776) resulted in: TNF reporter robust z-score 1.07.
With knock-down of B9D2 (GeneID 80776) the results were TNF reporter robust z-score 1.5.
For B9D2 (GeneID 80776), the entry reads TNF reporter robust z-score 1.76.
TSLIG1 (GeneID 339487) scored TNF reporter robust z-score -0.16.
TSLIG1 (GeneID 339487) gave TNF reporter robust z-score 0.86.
For TSLIG1 (GeneID 339487) the deposit lists TNF reporter robust z-score -0.24.
Against TSLIG1 (GeneID 339487), the entry reads TNF reporter robust z-score 0.18.
CD1C (GeneID 911) gave TNF reporter robust z-score 1.21.
With knock-down of CD1C (GeneID 911) the results were TNF reporter robust z-score -0.45.
For CD1C (GeneID 911), the entry reads TNF reporter robust z-score -0.26.
Against CD1C (GeneID 911) the deposit lists TNF reporter robust z-score -0.59.
For CD58 (GeneID 965) the deposit lists TNF reporter robust z-score 1.85.
After knock-down of CD58 (GeneID 965), the screen gave TNF reporter robust z-score 0.4.
With knock-down of CD58 (GeneID 965) the results were TNF reporter robust z-score 1.33.
For CD58 (GeneID 965) the deposit lists TNF reporter robust z-score 1.23.
With knock-down of SLC5A9 (GeneID 200010), the record shows TNF reporter robust z-score 0.76.
Against SLC5A9 (GeneID 200010) the deposit lists TNF reporter robust z-score 0.93.
SLC5A9 (GeneID 200010) gave TNF reporter robust z-score 0.27.
For SLC5A9 (GeneID 200010), the values are TNF reporter robust z-score 0.23.
KCTD20 (GeneID 222658) gave TNF reporter robust z-score 1.09.
Depletion of KCTD20 (GeneID 222658) resulted in: TNF reporter robust z-score 1.23.
Silencing of KCTD20 (GeneID 222658) came out at: TNF reporter robust z-score 1.98.
Against KCTD20 (GeneID 222658) the deposit lists TNF reporter robust z-score 2.29.
